These are yes or no findings as the source states them, for the method shown. In cells and extracts the contact can be indirect.
Biological target: Flag-REST (RE-1 silencing transcription factor), expressed in SHSY-5Y cells (UniProt Q13127)
Test: co-IP; told only in the discussion, no data shown; cells and constructs not stated

Chains of the proteins cited; added tags and fusions are not shown.
UniProt Q13127: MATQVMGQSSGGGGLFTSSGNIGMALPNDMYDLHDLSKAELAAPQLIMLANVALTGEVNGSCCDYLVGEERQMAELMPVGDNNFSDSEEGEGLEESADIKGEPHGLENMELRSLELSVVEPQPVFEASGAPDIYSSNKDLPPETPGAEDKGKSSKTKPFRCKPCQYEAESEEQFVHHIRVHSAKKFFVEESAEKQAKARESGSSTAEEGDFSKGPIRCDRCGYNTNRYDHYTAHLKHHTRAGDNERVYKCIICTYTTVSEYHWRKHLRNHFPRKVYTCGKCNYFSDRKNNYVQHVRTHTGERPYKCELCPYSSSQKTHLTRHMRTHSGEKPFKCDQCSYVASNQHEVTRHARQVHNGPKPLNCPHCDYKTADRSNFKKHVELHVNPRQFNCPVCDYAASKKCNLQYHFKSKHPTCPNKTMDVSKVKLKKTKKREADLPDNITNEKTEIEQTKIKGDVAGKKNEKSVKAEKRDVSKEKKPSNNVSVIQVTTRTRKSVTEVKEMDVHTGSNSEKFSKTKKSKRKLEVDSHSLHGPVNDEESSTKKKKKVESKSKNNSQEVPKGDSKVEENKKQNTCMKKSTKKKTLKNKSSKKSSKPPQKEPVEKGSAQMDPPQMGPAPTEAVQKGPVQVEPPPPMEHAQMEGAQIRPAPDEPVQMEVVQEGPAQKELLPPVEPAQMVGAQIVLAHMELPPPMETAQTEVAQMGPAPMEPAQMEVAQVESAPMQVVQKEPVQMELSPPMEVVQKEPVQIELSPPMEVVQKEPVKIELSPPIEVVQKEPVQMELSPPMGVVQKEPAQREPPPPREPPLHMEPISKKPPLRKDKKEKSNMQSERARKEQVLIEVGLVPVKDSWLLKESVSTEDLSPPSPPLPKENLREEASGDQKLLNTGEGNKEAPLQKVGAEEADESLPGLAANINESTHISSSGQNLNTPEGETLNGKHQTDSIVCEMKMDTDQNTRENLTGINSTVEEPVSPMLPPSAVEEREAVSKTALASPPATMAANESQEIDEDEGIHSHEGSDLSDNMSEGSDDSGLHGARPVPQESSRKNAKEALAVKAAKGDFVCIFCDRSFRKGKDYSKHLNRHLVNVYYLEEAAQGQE
UniProt Q8N6T7: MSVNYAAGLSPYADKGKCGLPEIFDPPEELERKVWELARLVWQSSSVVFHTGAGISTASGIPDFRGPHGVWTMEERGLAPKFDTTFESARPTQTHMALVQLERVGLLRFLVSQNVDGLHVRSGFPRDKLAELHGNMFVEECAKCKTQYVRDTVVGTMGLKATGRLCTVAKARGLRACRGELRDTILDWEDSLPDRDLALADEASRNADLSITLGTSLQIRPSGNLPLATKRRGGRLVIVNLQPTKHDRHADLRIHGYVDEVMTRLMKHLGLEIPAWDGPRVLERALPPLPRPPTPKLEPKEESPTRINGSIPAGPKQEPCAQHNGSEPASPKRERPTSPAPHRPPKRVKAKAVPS

binding: no binding
Substance: SIRT6 (from UniProt Q8N6T7 1-355) (enzyme)
